Measurements reported in patent publication US20100105622A1 (UNIVERSIDAD DE BARCELONA, published 2010).
These are yes or no findings as the source states them, for the method shown. Some results given as binding are weak or reduced against the parent protein; the word gives no strength.

T1: ALCAM (Activated Leukocyte Cell Adhesion Molecule, CD166), the CD6 ligand, on Raji B cells (human) (UniProt Q13740)
T1 sequence (looked up): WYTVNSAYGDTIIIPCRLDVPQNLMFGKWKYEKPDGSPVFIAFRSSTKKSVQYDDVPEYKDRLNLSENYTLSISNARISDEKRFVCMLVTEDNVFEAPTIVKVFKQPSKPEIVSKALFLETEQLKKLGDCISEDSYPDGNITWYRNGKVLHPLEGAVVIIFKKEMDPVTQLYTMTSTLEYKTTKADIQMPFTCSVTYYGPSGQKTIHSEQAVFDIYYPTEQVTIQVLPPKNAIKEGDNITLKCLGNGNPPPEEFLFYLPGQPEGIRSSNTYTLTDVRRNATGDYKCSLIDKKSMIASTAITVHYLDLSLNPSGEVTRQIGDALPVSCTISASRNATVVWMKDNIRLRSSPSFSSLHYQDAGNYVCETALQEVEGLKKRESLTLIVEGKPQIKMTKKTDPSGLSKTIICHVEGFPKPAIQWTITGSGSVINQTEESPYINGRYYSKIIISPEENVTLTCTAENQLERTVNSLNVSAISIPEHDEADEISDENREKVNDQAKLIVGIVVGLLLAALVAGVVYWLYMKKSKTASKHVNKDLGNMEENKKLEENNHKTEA


Target: T1, ALCAM (Activated Leukocyte Cell Adhesion Molecule, CD166), the CD6 ligand, on Raji B cells (human)
Test: flow cytometry, biotin-labeled protein on Raji cells, detected with streptavidin-Tricolor

Binder	binding
nsCD6, natural soluble CD6 affinity-purified from pooled human plasma (receptor, UniProt P30203 18-402, looked up) HPSPAPPDQLNTSSAESELWEPGERLPVRLTNGSSSCSGTVEVRLEASWEPACGALWDSRAAEAVCRALGCGGAEAASQLAPPTPELPPPPAAGNTSVAANATLAGAPALLCSGAEWRLCEVVEHACRSDGRRARVTCAENRALRLVDGGGACAGRVEMLEHGEWGSVCDDTWDLEDAHVVCRQLGCGWAVQALPGLHFTPGRGPIHRDQVNCSGAEAYLWDCPGLPGQHYCGHKEDAGAVCSEHQSWRLTGGADRCEGQVEVHFRGVWNTVCDSEWYPSEAKVLCQSLGCGTAVERPKGLPHSLSGRMYYSCNGEELTLSNCSWRFNNSNLCSQSLAARVLCSASRSLHNLSTPEVPASVQTVTIESSVTVKIENKESRELMLL	binds
rsCD6, recombinant soluble ectodomain of human CD6 (amino acids D25 to E384, immature protein numbering) (receptor, UniProt P30203 25-384, looked up, range 25-384; Used as unpurified serum-free culture supernatant to coat wells in the gp120 ELISA; also called recombinant soluble CD6; rCD6) DQLNTSSAESELWEPGERLPVRLTNGSSSCSGTVEVRLEASWEPACGALWDSRAAEAVCRALGCGGAEAASQLAPPTPELPPPPAAGNTSVAANATLAGAPALLCSGAEWRLCEVVEHACRSDGRRARVTCAENRALRLVDGGGACAGRVEMLEHGEWGSVCDDTWDLEDAHVVCRQLGCGWAVQALPGLHFTPGRGPIHRDQVNCSGAEAYLWDCPGLPGQHYCGHKEDAGAVCSEHQSWRLTGGADRCEGQVEVHFRGVWNTVCDSEWYPSEAKVLCQSLGCGTAVERPKGLPHSLSGRMYYSCNGEELTLSNCSWRFNNSNLCSQSLAARVLCSASRSLHNLSTPEVPASVQTVTIE	binds
